Assay results taken from the supplement of paper PMC10849652.
The other results are listed elsewhere or left out.

Sequences of proteins named here, by UniProt entry; tags and fusion partners are left off. A change or cut given only in a name is not applied to a line headed by its entry.
UniProt Q9BZG8: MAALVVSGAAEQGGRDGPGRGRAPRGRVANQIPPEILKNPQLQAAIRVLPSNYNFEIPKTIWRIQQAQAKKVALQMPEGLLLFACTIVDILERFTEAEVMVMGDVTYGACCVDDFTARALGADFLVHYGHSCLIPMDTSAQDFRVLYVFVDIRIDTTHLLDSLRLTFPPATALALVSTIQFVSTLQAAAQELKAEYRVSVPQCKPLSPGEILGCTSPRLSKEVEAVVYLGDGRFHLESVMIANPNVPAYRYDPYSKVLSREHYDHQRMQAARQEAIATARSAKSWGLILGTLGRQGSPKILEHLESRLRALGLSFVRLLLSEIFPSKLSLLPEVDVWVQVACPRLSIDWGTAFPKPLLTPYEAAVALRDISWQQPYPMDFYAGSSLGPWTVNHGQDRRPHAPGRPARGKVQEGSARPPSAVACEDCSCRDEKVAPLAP
UniProt P98172: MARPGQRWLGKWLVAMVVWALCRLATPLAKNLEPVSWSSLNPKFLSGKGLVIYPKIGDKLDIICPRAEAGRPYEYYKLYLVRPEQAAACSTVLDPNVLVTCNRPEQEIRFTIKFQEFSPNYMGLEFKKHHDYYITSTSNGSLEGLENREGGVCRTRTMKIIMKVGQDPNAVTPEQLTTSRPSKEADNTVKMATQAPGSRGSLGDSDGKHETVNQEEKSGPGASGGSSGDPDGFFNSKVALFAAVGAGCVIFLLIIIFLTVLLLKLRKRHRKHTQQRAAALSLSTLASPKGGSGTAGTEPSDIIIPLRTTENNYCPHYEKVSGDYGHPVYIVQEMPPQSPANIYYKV
UniProt Q8WVE0: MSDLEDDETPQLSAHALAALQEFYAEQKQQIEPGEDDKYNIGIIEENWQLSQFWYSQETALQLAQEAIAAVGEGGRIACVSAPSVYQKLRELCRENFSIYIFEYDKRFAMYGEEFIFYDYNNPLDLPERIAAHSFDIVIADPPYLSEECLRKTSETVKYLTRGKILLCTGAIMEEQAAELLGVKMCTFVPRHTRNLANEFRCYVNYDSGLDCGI
UniProt Q7Z2Z2: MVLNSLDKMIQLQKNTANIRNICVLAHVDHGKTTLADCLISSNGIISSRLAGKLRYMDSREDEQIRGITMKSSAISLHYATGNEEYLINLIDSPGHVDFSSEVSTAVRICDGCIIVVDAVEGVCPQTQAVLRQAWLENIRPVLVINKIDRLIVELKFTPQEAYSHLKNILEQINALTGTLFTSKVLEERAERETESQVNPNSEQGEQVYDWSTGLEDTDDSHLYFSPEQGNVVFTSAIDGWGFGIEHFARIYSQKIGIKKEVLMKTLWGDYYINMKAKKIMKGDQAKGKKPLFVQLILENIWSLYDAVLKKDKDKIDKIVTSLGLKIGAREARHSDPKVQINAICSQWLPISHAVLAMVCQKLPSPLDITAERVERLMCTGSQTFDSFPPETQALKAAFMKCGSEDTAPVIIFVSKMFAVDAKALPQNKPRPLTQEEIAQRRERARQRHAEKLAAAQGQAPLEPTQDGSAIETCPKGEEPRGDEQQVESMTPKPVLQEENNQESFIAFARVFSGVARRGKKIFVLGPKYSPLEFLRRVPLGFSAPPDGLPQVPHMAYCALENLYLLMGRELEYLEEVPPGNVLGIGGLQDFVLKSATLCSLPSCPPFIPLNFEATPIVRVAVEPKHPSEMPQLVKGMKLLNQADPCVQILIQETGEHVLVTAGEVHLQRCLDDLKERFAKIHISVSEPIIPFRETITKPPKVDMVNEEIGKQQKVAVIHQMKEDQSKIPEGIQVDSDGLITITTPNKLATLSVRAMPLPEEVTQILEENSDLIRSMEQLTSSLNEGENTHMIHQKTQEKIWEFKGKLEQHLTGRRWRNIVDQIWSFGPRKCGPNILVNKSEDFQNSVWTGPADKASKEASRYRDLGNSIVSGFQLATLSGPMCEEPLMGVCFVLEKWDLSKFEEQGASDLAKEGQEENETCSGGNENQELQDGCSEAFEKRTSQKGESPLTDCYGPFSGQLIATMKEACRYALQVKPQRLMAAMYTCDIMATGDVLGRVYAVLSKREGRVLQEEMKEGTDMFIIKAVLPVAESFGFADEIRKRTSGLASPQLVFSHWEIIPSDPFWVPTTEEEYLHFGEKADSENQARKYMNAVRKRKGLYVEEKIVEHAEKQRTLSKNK
UniProt O43324: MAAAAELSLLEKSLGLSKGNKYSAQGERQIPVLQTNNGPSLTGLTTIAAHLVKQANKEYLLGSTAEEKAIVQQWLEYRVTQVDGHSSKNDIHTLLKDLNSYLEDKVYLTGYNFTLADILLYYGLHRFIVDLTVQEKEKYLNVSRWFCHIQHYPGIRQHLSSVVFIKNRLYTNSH
UniProt Q6V1X1: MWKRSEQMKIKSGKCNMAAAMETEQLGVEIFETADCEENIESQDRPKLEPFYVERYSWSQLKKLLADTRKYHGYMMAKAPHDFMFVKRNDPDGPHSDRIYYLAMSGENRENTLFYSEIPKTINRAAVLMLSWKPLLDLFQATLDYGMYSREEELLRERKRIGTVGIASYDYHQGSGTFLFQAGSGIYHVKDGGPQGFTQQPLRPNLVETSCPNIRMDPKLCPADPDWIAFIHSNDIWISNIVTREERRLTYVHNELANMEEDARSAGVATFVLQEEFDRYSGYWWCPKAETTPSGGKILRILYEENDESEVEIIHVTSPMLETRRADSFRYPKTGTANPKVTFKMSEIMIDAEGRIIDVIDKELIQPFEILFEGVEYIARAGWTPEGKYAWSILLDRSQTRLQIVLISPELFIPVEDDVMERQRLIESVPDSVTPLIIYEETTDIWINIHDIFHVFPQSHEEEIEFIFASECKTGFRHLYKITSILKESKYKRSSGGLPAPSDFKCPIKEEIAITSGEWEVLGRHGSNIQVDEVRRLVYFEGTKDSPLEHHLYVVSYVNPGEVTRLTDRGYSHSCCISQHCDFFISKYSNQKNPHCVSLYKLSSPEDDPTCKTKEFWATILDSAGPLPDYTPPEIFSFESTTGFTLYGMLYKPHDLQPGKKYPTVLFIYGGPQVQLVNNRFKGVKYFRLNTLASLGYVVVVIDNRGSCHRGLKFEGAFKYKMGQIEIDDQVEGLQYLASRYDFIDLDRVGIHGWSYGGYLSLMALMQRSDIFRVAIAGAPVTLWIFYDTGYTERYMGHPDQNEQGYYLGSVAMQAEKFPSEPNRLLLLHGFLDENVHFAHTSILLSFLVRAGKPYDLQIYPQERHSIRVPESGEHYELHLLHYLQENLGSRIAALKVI
UniProt P63172, whole entry, looked up: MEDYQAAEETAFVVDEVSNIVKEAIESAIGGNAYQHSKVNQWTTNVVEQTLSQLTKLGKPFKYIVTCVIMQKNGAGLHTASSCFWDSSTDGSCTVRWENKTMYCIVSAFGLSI
UniProt Q8N9N8: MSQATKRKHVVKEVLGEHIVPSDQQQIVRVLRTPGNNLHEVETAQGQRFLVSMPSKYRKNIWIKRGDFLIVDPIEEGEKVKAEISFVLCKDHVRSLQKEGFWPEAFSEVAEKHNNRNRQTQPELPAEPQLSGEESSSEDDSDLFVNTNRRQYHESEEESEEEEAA
UniProt Q9BY44: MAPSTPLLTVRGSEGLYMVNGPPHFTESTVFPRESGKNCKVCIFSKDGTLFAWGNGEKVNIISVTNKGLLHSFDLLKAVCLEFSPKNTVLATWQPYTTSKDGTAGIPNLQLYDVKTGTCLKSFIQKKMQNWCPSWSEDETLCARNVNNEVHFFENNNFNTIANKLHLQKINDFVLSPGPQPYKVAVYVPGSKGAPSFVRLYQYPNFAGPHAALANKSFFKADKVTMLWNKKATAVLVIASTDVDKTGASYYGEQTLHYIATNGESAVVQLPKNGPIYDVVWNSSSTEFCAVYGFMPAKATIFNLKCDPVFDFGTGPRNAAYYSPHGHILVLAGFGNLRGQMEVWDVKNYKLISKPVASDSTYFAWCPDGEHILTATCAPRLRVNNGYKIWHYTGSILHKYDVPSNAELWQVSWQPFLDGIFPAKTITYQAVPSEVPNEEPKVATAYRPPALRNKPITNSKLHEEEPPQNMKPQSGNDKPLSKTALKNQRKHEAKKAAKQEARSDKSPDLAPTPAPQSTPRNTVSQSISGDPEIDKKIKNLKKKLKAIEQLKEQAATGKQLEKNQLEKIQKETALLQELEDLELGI
UniProt Q8TEA8: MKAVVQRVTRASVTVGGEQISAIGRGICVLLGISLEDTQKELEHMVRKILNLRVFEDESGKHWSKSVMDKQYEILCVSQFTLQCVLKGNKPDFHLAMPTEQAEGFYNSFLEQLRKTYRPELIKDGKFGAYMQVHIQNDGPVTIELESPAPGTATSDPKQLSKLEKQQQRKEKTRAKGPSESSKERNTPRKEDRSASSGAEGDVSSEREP
UniProt P42126: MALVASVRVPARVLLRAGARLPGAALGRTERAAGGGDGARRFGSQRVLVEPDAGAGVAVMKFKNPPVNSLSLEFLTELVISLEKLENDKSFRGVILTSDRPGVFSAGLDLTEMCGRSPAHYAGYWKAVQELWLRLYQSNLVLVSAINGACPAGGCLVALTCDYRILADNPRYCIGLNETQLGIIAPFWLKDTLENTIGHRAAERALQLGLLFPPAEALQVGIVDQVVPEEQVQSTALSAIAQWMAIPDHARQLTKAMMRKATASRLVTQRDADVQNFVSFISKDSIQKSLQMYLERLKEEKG
UniProt Q86TI2: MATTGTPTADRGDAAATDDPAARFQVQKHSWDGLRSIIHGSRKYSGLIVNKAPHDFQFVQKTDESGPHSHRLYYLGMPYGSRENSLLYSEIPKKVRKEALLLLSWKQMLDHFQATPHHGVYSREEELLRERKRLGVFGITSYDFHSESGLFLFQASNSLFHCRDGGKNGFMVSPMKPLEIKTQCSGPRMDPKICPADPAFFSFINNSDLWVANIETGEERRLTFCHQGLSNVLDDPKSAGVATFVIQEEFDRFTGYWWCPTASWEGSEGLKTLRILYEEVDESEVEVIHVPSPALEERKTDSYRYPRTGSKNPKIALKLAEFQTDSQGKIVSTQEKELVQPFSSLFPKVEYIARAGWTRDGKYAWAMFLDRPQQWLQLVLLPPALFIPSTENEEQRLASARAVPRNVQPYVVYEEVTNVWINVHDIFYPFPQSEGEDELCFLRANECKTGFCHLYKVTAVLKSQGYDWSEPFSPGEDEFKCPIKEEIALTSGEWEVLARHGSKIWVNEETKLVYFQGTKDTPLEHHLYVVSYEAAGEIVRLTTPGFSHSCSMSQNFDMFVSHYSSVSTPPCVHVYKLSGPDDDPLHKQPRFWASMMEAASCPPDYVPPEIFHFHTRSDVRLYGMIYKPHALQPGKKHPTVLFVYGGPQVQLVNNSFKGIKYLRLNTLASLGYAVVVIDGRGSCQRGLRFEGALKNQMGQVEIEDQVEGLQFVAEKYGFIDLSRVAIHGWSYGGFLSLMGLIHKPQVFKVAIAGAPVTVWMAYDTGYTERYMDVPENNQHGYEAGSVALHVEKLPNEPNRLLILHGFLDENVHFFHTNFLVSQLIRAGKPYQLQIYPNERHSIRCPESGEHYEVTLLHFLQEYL
UniProt Q96FJ2, whole entry, looked up: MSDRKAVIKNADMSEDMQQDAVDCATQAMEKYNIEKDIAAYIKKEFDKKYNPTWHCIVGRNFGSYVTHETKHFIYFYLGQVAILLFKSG
UniProt Q6P1R4: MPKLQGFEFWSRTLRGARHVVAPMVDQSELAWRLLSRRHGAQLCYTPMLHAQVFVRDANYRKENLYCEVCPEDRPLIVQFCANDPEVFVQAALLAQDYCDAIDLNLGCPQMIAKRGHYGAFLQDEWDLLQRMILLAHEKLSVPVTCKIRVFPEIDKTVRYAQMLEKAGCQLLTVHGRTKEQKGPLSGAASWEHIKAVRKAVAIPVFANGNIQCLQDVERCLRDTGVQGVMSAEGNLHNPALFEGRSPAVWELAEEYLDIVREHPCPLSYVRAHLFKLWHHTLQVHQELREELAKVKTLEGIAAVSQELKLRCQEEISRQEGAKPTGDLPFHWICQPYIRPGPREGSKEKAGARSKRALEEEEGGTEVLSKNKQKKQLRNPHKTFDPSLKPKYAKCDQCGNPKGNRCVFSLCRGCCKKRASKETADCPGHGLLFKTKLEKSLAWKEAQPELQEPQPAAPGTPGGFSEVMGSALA
UniProt P55039: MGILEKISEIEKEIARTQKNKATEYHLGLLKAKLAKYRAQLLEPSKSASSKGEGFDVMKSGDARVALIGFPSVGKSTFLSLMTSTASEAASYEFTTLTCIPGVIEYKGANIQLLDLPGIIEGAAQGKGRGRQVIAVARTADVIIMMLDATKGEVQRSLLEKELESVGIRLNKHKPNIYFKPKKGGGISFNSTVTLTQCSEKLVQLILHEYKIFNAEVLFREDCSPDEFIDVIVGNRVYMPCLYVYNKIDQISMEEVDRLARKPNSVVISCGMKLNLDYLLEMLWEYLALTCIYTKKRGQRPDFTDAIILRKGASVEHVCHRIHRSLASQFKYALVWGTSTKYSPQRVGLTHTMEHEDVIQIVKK
UniProt Q9BUP0: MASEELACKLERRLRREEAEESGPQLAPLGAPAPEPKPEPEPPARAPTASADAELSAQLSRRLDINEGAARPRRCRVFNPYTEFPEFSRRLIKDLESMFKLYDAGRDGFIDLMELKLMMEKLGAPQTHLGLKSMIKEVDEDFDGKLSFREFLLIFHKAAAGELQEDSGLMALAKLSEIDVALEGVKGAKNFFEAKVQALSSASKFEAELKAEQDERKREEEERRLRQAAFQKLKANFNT

Key:
Experiment in all cases: log2 fold change, soluble protein after heating vs DMSO (PISA); higher = thermal stabilisation; K562 lysate, 10 uM; active = over 0.2 and 3.5 SD of the protein, either way, in both replicates (recomputed)
nilotinib = compound: Cc1cn(-c2cc(NC(=O)c3ccc(C)c(Nc4nccc(-c5cccnc5)n4)c3)cc(C(F)(F)F)c2)cn1 [nilotinib]
In short: (§1)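 K562 pellets were dounce-homogenised in PBS pH 7.4 containing 1 mM MgCl2, and the crude extract, at 1 mg/mL protein, was exposed to 10 μM compound for 30 min. Aliquots were heated for 3 min across 48°C-58°C, pooled, brought to 0.5% NP-40 at 4°C and spun at 21,000xg for 90 min, with the supernatant taken as soluble protein. TMTpro 16plex LC-MS/MS with equalised channel sums quantified that protein. Values are log-two fold changes in thermal stability relative to solvent controls, taken from duplicates.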

[1] = compound: Cc1nc(Nc2n[nH]c3c2CN(C(=O)N[C@H](CN(C)C)c2ccccc2)C3(C)C)c2sccc2n1
In short: as §1

dasatinib = compound: Cc1nc(Nc2ncc(C(=O)Nc3c(C)cccc3Cl)s2)cc(N2CCN(CCO)CC2)n1 [dasatinib]
In short: as §1

[2] = compound: Cc1ncc(-c2ccnc(Nc3ccc(S(C)(=O)=O)cc3)n2)n1C(C)C
In short: as §1

[3] = compound: Cn1cc(-c2ccc3c(c2)CCN3C(=O)Cc2cccc(C(F)(F)F)c2)c2c(N)ncnc21
In short: as §1

quisinostat = compound: Cn1cc(CNCC2CCN(c3ncc(C(=O)NO)cn3)CC2)c2ccccc21 [quisinostat]
In short: as §1

tipifarnib = compound: Cn1cncc1[C@@](N)(c1ccc(Cl)cc1)c1ccc2c(c1)c(-c1cccc(Cl)c1)cc(=O)n2C [tipifarnib]
In short: as §1

[4] = compound: NC(=O)Nc1cc(-c2cccc(F)c2)sc1C(=O)N[C@H]1CCCNC1
In short: as §1

[5] = compound: NC(=O)c1cnc(N[C@@H]2CCCC[C@@H]2N)nc1Nc1cccc(-n2nccn2)c1
In short: as §1

[6] = compound: NC1(c2ccc(-c3nc4ccn5c(=O)[nH]nc5c4cc3-c3ccccc3)cc2)CCC1
In short: as §1

Measured: log2 fold change

ECHDC3 (UniProt Q96DC8)
inactive: nilotinib -0.023 | [1] 0.051 | dasatinib 0.018 | [2] -0.035 | [3] 0.038 | quisinostat 0.044 | tipifarnib -0.034 | [4] 0.036 | [5] 0 | [6] 0.011

EI24 (UniProt O14681)
inactive: nilotinib -0.055 | [1] -0.018 | dasatinib 0.043 | [2] 0.018 | [3] 0.034 | quisinostat -0.014 | tipifarnib -0.009 | [4] -0.075 | [5] 0.011 | [6] 0.017

DPH1 (UniProt Q9BZG8)
inactive: nilotinib 0.031 | [1] -0.05 | dasatinib 0.005 | [2] -0.054 | [3] -0.011 | quisinostat 0.005 | tipifarnib -0.036 | [4] -0.001 | [5] 0.006 | [6] -0.034

EFNB1 (UniProt P98172)
inactive: nilotinib -0.054 | [1] -0.249 | dasatinib 0.006 | [2] -0.222 | [3] 0.03 | quisinostat 0.014 | tipifarnib 0.003 | [4] 0.011 | [5] 0.013 | [6] -0.007

EEF1AKMT1 (UniProt Q8WVE0)
inactive: nilotinib 0.054 | [1] -0.005 | dasatinib -0.147 | [2] -0.046 | [3] 0.053 | quisinostat -0.031 | tipifarnib -0.122 | [4] -0.013 | [5] 0.142 | [6] 0.08

EHHADH (UniProt Q08426)
inactive: nilotinib -0.048 | [1] -0.091 | dasatinib -0.011 | [2] 0.045 | [3] -0.047 | quisinostat -0.072 | tipifarnib 0.052 | [4] -0.003 | [5] 0.025 | [6] 0.097

EDC3 (UniProt Q96F86)
inactive: nilotinib 0.045 | [1] 0.016 | dasatinib -0.022 | [2] -0.031 | [3] 0.004 | quisinostat -0.006 | tipifarnib -0.069 | [4] -0.019 | [5] -0.014 | [6] 0.017

EFL1 (UniProt Q7Z2Z2)
inactive: nilotinib -0.01 | [1] 0.015 | dasatinib -0.013 | [2] 0.001 | [3] 0.007 | quisinostat -0.022 | tipifarnib -0.013 | [4] 0.002 | [5] 0.017 | [6] 0.02

ECE1 (UniProt P42892)
inactive: nilotinib -0.003 | [1] 0.019 | dasatinib -0.002 | [2] 0.012 | [3] -0.013 | quisinostat 0.061 | tipifarnib 0.034 | [4] -0.049 | [5] 0.012 | [6] -0.058

DVL2 (UniProt O14641)
inactive: nilotinib -0.03 | [1] -0.003 | dasatinib -0.114 | [2] 0.027 | [3] -0.063 | quisinostat -0.13 | tipifarnib -0.027 | [4] 0.102 | [5] 0.236 | [6] -0.097

DPYSL2 (UniProt Q16555)
inactive: nilotinib 0.004 | [1] 0.068 | dasatinib 0.025 | [2] 0.049 | [3] -0.039 | quisinostat -0.007 | tipifarnib 0.048 | [4] -0.011 | [5] 0.007 | [6] -0.035

EEF1B2 (UniProt P24534)
inactive: nilotinib -0.002 | [1] -0.002 | dasatinib 0 | [2] -0.01 | [3] -0.021 | quisinostat -0.009 | tipifarnib 0.006 | [4] 0.011 | [5] -0.02 | [6] -0.003

EEF1E1 (UniProt O43324)
inactive: nilotinib -0.021 | [1] 0.004 | dasatinib -0.059 | [2] -0.016 | [3] 0.006 | quisinostat -0.039 | tipifarnib 0.03 | [4] 0.047 | [5] -0.013 | [6] -0.023

DSN1 (UniProt Q9H410)
inactive: nilotinib -0.006 | [1] 0.023 | dasatinib -0.022 | [2] 0.001 | [3] 0.011 | quisinostat -0.015 | tipifarnib -0.015 | [4] 0.05 | [5] 0.014 | [6] 0.031

DPP8 (UniProt Q6V1X1)
inactive: nilotinib 0.012 | [1] 0.053 | dasatinib -0.017 | [2] 0.01 | [3] 0.005 | quisinostat 0.033 | tipifarnib 0.01 | [4] 0.002 | [5] -0.172 | [6] -0.013

DYNLT1 (UniProt P63172)
inactive: nilotinib 0.024 | [1] 0.062 | dasatinib 0.002 | [2] 0.123 | [3] -0.011 | quisinostat 0.056 | tipifarnib 0.011 | [4] 0.054 | [5] -0.029 | [6] -0.002

EIF1AD (UniProt Q8N9N8)
inactive: nilotinib 0.015 | [1] -0.008 | dasatinib 0.027 | [2] 0.018 | [3] 0.055 | quisinostat 0.002 | tipifarnib 0.02 | [4] -0.007 | [5] -0.003 | [6] -0.017

EEF1AKMT2, A0A494BZY7
inactive: nilotinib 0.011 | [1] -0.012 | dasatinib -0.008 | [2] 0.016 | [3] 0.002 | quisinostat 0.007 | tipifarnib -0.025 | [4] 0.042 | [5] -0.021 | [6] -0.033

EIF2A (UniProt Q9BY44)
inactive: nilotinib 0.005 | [1] -0.009 | dasatinib -0.009 | [2] 0.003 | [3] -0.006 | quisinostat -0.002 | tipifarnib 0.049 | [4] -0.023 | [5] -0.019 | [6] 0.001

DTD1 (UniProt Q8TEA8)
inactive: nilotinib -0.037 | [1] -0.028 | dasatinib 0.018 | [2] 0.015 | [3] -0.009 | quisinostat 0.016 | tipifarnib -0.009 | [4] 0.006 | [5] 0.015 | [6] 0.048

ECI1 (UniProt P42126)
inactive: nilotinib 0.016 | [1] 0.004 | dasatinib -0.015 | [2] -0.025 | [3] -0.01 | quisinostat 0.031 | tipifarnib 0.001 | [4] -0.009 | [5] -0.038 | [6] 0.031

ECD isoform 3 (UniProt O95905)
inactive: nilotinib 0.005 | [1] -0.002 | dasatinib -0.081 | [2] -0.016 | [3] 0.066 | quisinostat -0.053 | tipifarnib -0.006 | [4] 0.04 | [5] -0.039 | [6] -0.032

DPP9 isoform 2 (UniProt Q86TI2)
inactive: nilotinib 0.011 | [1] -0.006 | dasatinib 0.01 | [2] 0.02 | [3] -0.006 | quisinostat -0.008 | tipifarnib 0.004 | [4] 0.022 | [5] 0.003 | [6] -0.003

DYNLL2 (UniProt Q96FJ2)
inactive: nilotinib 0.069 | [1] 0.037 | dasatinib -0.06 | [2] 0.092 | [3] 0.006 | quisinostat -0.003 | tipifarnib 0.033 | [4] -0.088 | [5] -0.016 | [6] 0.094

Looked up one by one from above, two records:
EFNB1 (UniProt P98172)
inactive: nilotinib -0.054 | [1] -0.249 | dasatinib 0.006 | [2] -0.222 | [3] 0.03 | quisinostat 0.014 | tipifarnib 0.003 | [4] 0.011 | [5] 0.013 | [6] -0.007

DYNLL2 (UniProt Q96FJ2)
inactive: nilotinib 0.069 | [1] 0.037 | dasatinib -0.06 | [2] 0.092 | [3] 0.006 | quisinostat -0.003 | tipifarnib 0.033 | [4] -0.088 | [5] -0.016 | [6] 0.094

(listing goes on)

DUS1L (UniProt Q6P1R4)
inactive: nilotinib -0.018 | [1] 0.011 | dasatinib -0.03 | [2] 0.031 | [3] -0.032 | quisinostat -0.035 | tipifarnib 0.008 | [4] 0.096 | [5] 0.005 | [6] 0.061

EHD2 (UniProt Q9NZN4)
inactive: nilotinib 0.007 | [1] -0.02 | dasatinib -0.018 | [2] 0.019 | [3] -0.084 | quisinostat -0.074 | tipifarnib -0.047 | [4] 0.09 | [5] 0.029 | [6] -0.042

ECI2 (UniProt O75521)
inactive: nilotinib 0.085 | [1] -0.013 | dasatinib 0.029 | [2] 0.017 | [3] -0.01 | quisinostat 0.023 | tipifarnib -0.071 | [4] -0.027 | [5] -0.019 | [6] -0.022

DRG2 (UniProt P55039)
inactive: nilotinib 0.011 | [1] -0.019 | dasatinib -0.013 | [2] 0.004 | [3] -0.029 | quisinostat -0.053 | tipifarnib 0.019 | [4] 0.037 | [5] -0.023 | [6] -0.036

E2F3 (UniProt O00716)
inactive: nilotinib -0.007 | [1] -0.201 | dasatinib 0.001 | [2] 0.116 | [3] 0.039 | quisinostat 0.015 | tipifarnib 0 | [4] 0.007 | [5] 0.025 | [6] -0.027

EFHD1 (UniProt Q9BUP0)
inactive: nilotinib 0.067 | [1] 0.062 | dasatinib 0.061 | [2] -0.13 | [3] -0.005 | quisinostat -0.025 | tipifarnib 0.021 | [4] -0.059 | [5] 0.012 | [6] 0.014
